Measurements: article PMC5227094
Read-outs that look alike come from different tables or passages of the source. Results are given in words; binding and its absence hold for the method and conditions named. Binding seen in cells or lysates may run through a third protein. Here binding means that the protein was enriched with, or labelled near, the bait; the list need not be complete.

Columns and labels:
[1] = molecular target: TAP-tagged GluN1 (Glun1^TAP/TAP knock-in) (mouse) (UniProt P35438); assay: affinity purification with mass spectrometry; TAP-GluN1 captured from Glun1^TAP/TAP forebrain deoxycholate extract on Flag antibody-protein G magnetic beads, eluted with Flag peptide, separated by BNP, ∼1.5 MDa and ∼0.8 MDa bands excised, LC-MS/MS; WT mice as control
[2] = molecular target: TAP-tagged GluN1 (Glun1^TAP/TAP knock-in) (mouse) (UniProt P35438); assay: as above; remark: listed apart in the source

Row | binding [1] | binding [2] | Molecule
1 | binds | – | Iqsec2 (from UniProt Q5DU25 1-1478)
2 | – | binds | Kir2.3 (protein, UniProt P52189 1-445) MHGHNRNGQAHVPRRKRRNRFVKKNGQCNVYFANLSNKSQRYMADIFTTCVDTRWRYMLMIFSAAFLVSWLFFGLLFWWIAFFHGDLEASPSVPAVGGPGGNGGESPNAPKPCIMHVNGFLGAFLFSVETQTTIGYGFRCVTEECPLAVIAVVVQSIVGCVIDSFMIGTIMAKMARPKKRAQTLLFSHHAVISVRDGKLCLMWRVGNLRKSHIVEAHVRAQLIKPYMTQEGEYLPLDQRDLNVGYDIGLDRIFLVSPIIIVHEIDEDSPLYGMGKEELESEDFEIVVILEGMVEATAMTTQARSSYLASEILWGHRFEPVVFEEKSHYKVDYSRFHKTYEVAGTPCCSARELQESKITVLPAPPPPPSAFCYENELALMSQEEEEMEEEAAAAAAVAAGLGLEAGSKEEAGIIRMLEFGSHLDLERMQAATLPLDNISYRRESRI
3 | – | binds | Arc (protein, UniProt Q9WV31 1-396) MELDHMTTGGLHAYPAPRGGPAAKPNVILQIGKCRAEMLEHVRRTHRHLLTEVSKQVERELKGLHRSVGKLENNLDGYVPTGDSQRWKKSIKACLCRCQETIANLERWVKREMHVWREVFYRLERWADRLESMGGKYPVGSEPARHTVSVGVGGPEPYCQEADGYDYTVSPYAITPPPAAGELPEQESVEAQQYQSWGPGEDGQPSPGVDTQIFEDPREFLSHLEEYLRQVGGSEEYWLSQIQNHMNGPAKKWWEFKQGSVKNWVEFKKEFLQYSEGTLSREAIQRELELPQKQGEPLDQFLWRKRDLYQTLYVDAEEEEIIQYVVGTLQPKLKRFLRHPLPKTLEQLIQRGMEVQDGLEQAAEPSGTPLPTEDETEALTPALTSESVASDRTQPE
